Test results taken from US7683055B2, “Lanthionine-related compounds for the treatment of inflammatory diseases” (Oklahoma Medical Research Foundation, priority 2006, dated 2010).

Test system: human PB monocytes
Assay: intracellular TNFα in human peripheral blood monocytes by flow cytometry
Format: cell-based
Text: Identification of TNFα positive monocytes in peripheral blood by flow cytometry: PB monocytes expressing TNF in response to LPS or PG can be identified and counted using flow cytometry with fluorescent antibodies to stain TNFα. To identify the percentage of monocytes expressing TNFα, PB was stimulated with LPS or PG, stained for surface markers to distinguish monocytes from other leukocytes, and stained for intracellular TNFα to identify monocytes expressing TNFα. The percentage of monocytes positive for TNFα was compared among samples stimulated with LPS, PG, with and without pretreatment with (R)-LKE1, and non-stimulated samples.
The fluorescent antibodies used to identify monocytes surface markers were anti-human CD14-phycoerythrin (PE) and andtiCD16b-fluorescein isothyocyanate (FITC), based on staining intensity for each marker. Monocytes are positive for CD14 and negative for CD16b. This method of separating monocytes from neutrophils was confirmed by sorting cells based on CD14/CD16b intensity, preparing slides, staining with May-Grunwald Giemsa and confirming by morphology.
For analysis of CD14 positive, CD16b negative cells we used dot plots. We first excluded lymphocytes from the analysis by their forward scatter (FSC) and side scatter (SSC) properties, drawing a monocyte/neutrophil gate to exclude lymphocytes (not shown). We then identified CD14+, (y-axis) CD16b− (x-axis) cells by comparison with an unstained sample.
A third dye, PE-Cye7 was used for intracellular cytokine staining of TNFα. The TNFα positive monocytes were identified on a second dot plot of SSC vs. TNFα PE-Cye7 for monocytes only. Cells were counted as positive for TNFα expression if the intensity of PE-Cye7 was greater than in the non-stimulated control. The percent of TNFα positive monocytes was calculated using number positive/total number of monocytes.
PB, heparinized, was diluted 1:3 with DMEM. Diluted blood was placed in 1.0 ml aliquots into wells of a non tissue culture plate. PB was pre-incubated at 37° C. for one hour with LKE (1 mM) or the diluent DMSO (10 μl). […]

CCOC(=O)[C@@H]1CSCC(C(=O)O)=N1 [(R)-LKE1]
total number of monocytes per sample of 10,000 cells (1 mM pre-incubation, PG 10 ug/ml): 527
total number of monocytes per sample of 10,000 cells (1 mM pre-incubation, Ultra Pure LPS 1 μg/ml): 471
total number of monocytes per sample of 10,000 cells (1 mM, no stimulus): 727
